Experimental data as given in patent publication US20250388690A1.

Chains of the proteins cited; added tags and fusions are not shown. Lines headed by an entry give the natural chain unless they say otherwise; changes in a name come on top.
UniProt P20333: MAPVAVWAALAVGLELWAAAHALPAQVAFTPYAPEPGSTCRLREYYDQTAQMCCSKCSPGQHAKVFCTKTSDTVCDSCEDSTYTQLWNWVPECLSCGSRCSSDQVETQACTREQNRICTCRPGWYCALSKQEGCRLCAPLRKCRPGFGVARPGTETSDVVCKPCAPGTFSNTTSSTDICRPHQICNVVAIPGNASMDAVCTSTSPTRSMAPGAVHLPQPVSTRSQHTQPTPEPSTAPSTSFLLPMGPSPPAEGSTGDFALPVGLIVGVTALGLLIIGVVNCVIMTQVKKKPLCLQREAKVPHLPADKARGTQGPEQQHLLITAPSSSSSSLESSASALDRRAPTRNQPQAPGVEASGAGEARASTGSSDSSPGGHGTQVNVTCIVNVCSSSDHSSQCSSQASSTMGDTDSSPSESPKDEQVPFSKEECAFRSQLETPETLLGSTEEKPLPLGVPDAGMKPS

Columns and labels:
[1] = target: hTNFR2-Δ1 (human) (UniProt P20333); assay: flow cytometry, transfected HEK cells
[2] = target: hTNFR2-Δ1 + 3 (human) (UniProt P20333); assay: flow cytometry, transfected HEK cells
[3] = target: hTNFR2-Δ2 (human); assay: flow cytometry, transfected HEK cells
[4] = target: hTNFR2-Δ1 (human) (UniProt P20333); assay: flow cytometry on transfected HEK293 cells, MFI
[5] = target: hTNFR2-Δ1 + 3 (human) (UniProt P20333); assay: flow cytometry on transfected HEK293 cells, MFI
[6] = target: hTNFR2-Δ2 (human); assay: flow cytometry on transfected HEK293 cells, MFI
[7] = target: hTNFR2-Δ1 (human) (UniProt P20333); assay: flow cytometry, transfected HEK293 cells
[8] = target: hTNFR2-Δ2 (human); assay: flow cytometry, transfected HEK293 cells
[9] = target: hTNFR2-Δ2 + 4 (human) (UniProt P20333); assay: flow cytometry, transfected HEK cells
[10] = target: hTNFR2-Δ4 (human) (UniProt P20333); assay: flow cytometry on transfected HEK293 cells, MFI
[11] = target: hTNFR2-Δ2 + 4 (human) (UniProt P20333); assay: flow cytometry on transfected HEK293 cells, MFI

Measured: binding

B1: 001-F06 (antibody, V domains shown)
VH: EVQLLESGGGLVQPGGSLRLSCAASGFTFSSYAMHWVRQAPGKGLEWVSAISGGATTTYYADSVKGRFTISRDNSKNTLYLQMNSLRAEDTAVYYCAKGGTGDPYYFDYWGQGTLVTVSS
VL: QSVLTQPPSASGTPGQRVTISCTGSSSNIGAGYDVHWYQQLPGTAPKLLIYRNNQRPSGVPDRFSGSKSGTSASLAISGLRSEDEADYYCAARDDGLSGPVFGGGTKLTVLG
binds: [1] | [2] | [3] | [4] | [5] | [6] | [7] | [8]

B2: 001-H10 (antibody, V domains shown)
VH: EVQLLESGGGLVQPGGSLRLSCAASGFTFDDYGMSWVRQAPGKGLEWVSVIYSGGSTYYADSVKGRFTISRDNSKNTLYLQMNSLRAEDTAVYYCARDRSSSWYRDGMDVWGQGTLVTVSS
VL: B1 VL with R52G, N54S, Q55N, R93W, G96S, P100W
binds: [1] | [3] | [9] | [4] | [6] | [10] | [11] | [7] | [8]

B3: 004-E08 (antibody, V domains shown)
VH: EVQLLESGGGLVQPGGSLRLSCAASGFTFSRYWMHWVRQVPGKGLEWVSGISDSGVVTYYADSVKGRFTISRDNSKNTLYLQMNSLRAEDTAVYYCARAQSVAFDIWGQGTLVTVSS
VL: B1 VL with T23S, Y33H, R52Y, N53D, N54D, Q55L, R56L, R93W, G96S, P100W
binds: [1] | [3] | [4] | [6] | [7] | [8]

B4: 001-F02 (antibody, V domains shown)
VH: EVQLLESGGGLVQPGGSLRLSCAASGFTFSDYYMSWVRQAPGKGLEWVANINTDGSEKYYLDSVKGRFTISRDNSKNTLYLQMNSLRAEDTAVYYCAREEYGAFDIWGQGTLVTVSS
VL: QSVLTQPPSASGTPGQRVTISCSGSSSNIGSNTVNWYQQLPGTAPKLLIYDNNKRPSGVPDRFSGSKSGTSASLAISGLRSEDEADYYCQSFDRGLSGSIVFGGGTKLTVLG
binds: [1] | [3] | [4] | [6] | [10] | [7] | [8]

B5: 001-G10 (antibody, V domains shown)
VH: EVQLLESGGGLVQPGGSLRLSCAASGFTFSAYGMHWVRQAPGKGLEWVAVVSYDGREKHYADSVKGRFTISRDNSKNTLYLQMNSLRAEDTAVYYCARSDGGYDSDSGYYWGQGTLVTVSS
VL: QSVLTQPPSASGTPGQRVTISCSGSTSNIGSNFVYWYQQLPGTAPKLLIYDNNKRPSGVPDRFSGSKSGTSASLAISGLRSEDEADYYCSSYAYSDNILFGGGTKLTVLG
binds: [4] | [6]

Positions count from the first letter of the chain named. Results are given in words; binding and its absence hold for the method and conditions named. Binding can be weak; no strength is given.
